Results reported in the supplement of paper PMC4635364.
Counter-ions that a name gives are not always drawn. Some of the results follow. Repeats in this data set agree poorly, so a single value says little.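 Cells: ReNCell VM human fetal ventral-midbrain neural progenitors, differentiated mitogen-free. Blinded raters compared doublecortin-stained (early neurons) or tyrosine hydroxylase-stained (dopaminergic neurons) images with untreated wells, where 0 means no change. After repeats and both raters were averaged, compounds scoring 2 or above became hits for retesting.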

Key:
[1] = system: ReNCell VM; assay: neuronal differentiation score (DCX+ cell fraction vs untreated, manual image score) (score (-3 to 3)); higher = more neuronal differentiation; conditions: 2 uM, 2 weeks
[2] = system: ReNCell VM; assay: dopaminergic neuron differentiation score (TH+ cell fraction vs untreated, manual image score) (score (0 to 3)); higher = more TH+ dopaminergic neuron differentiation; conditions: 2 uM, 4 weeks, BDNF 10 ng/ml + GDNF 10 ng/ml

COc1ccc(Cc2nccc3cc(OC)c(OC)cc23)cc1OC [Papaverine hydrochloride]
inactive: neuronal differentiation score ([1]; library: LOPAC) 0 | neuronal differentiation score ([1]; library: Phytochemical) 0 | neuronal differentiation score ([1]; library: Prestwick) 0 | dopaminergic neuron differentiation score ([2]; library: LOPAC) 1 | dopaminergic neuron differentiation score ([2]; library: Phytochemical) 0 | dopaminergic neuron differentiation score ([2]; library: Prestwick) 0

Oc1ccc2c3c1O[C@H]1c4[nH]c5c(c4C[C@@]4(O)[C@@H](C2)N(CC2CC2)CC[C@]314)C[C@@]1(O)[C@H]2Cc3ccc(O)c4c3[C@@]1(CCN2CC1CC1)[C@H]5O4 [nor-Binaltorphimine dihydrochloride]
inactive: neuronal differentiation score ([1]; library: LOPAC) 0 | neuronal differentiation score ([1]; library: Tocriscreen) 0 | dopaminergic neuron differentiation score ([2]; library: LOPAC) 0 | dopaminergic neuron differentiation score ([2]; library: Tocriscreen) 0

CCCN1CCC[C@@H]2Cc3n[nH]cc3C[C@H]21 [(-)-Quinpirole hydrochloride]
inactive: neuronal differentiation score ([1]; library: LOPAC) 0 | neuronal differentiation score ([1]; library: Phytochemical) 0 | neuronal differentiation score ([1]; library: Tocriscreen) 0 | dopaminergic neuron differentiation score ([2]; library: LOPAC) 0 | dopaminergic neuron differentiation score ([2]; library: Phytochemical) 0 | dopaminergic neuron differentiation score ([2]; library: Tocriscreen) 0

CN1C[C@H](CNC(=O)OCc2ccccc2)C[C@@H]2c3cccc4c3c(cn4C)C[C@H]21 [Metergoline]
inactive: neuronal differentiation score ([1]; library: LOPAC) 0 | neuronal differentiation score ([1]; library: Prestwick) 0 | neuronal differentiation score ([1]; library: Tocriscreen) 0 | dopaminergic neuron differentiation score ([2]; library: LOPAC) 0 | dopaminergic neuron differentiation score ([2]; library: Prestwick) 0 | dopaminergic neuron differentiation score ([2]; library: Tocriscreen) 0

CC1=NN=C(c2ccc(N)cc2)c2cc3c(cc2C1)OCO3
inactive: neuronal differentiation score ([1]; library: LOPAC) 0 | neuronal differentiation score ([1]; library: Tocriscreen) 0 | dopaminergic neuron differentiation score ([2]; library: LOPAC) 0 | dopaminergic neuron differentiation score ([2]; library: Tocriscreen) 0

CN(C)C(=O)Oc1ccc[n+](C)c1 [Pyridostigmine bromide]
inactive: neuronal differentiation score ([1]; library: LOPAC) 0 | neuronal differentiation score ([1]; library: Phytochemical) 0 | dopaminergic neuron differentiation score ([2]; library: LOPAC) 0 | dopaminergic neuron differentiation score ([2]; library: Phytochemical) 0

C1CCc2nnnn2CC1 [Pentylenetetrazole]
inactive: neuronal differentiation score ([1]; library: LOPAC) 0 | neuronal differentiation score ([1]; library: Prestwick) 0 | neuronal differentiation score ([1]; library: Tocriscreen) 0 | dopaminergic neuron differentiation score ([2]; library: LOPAC) 0 | dopaminergic neuron differentiation score ([2]; library: Prestwick) 0 | dopaminergic neuron differentiation score ([2]; library: Tocriscreen) 0
